The text below walks through data of publication PMC6393609.

No constants are given. Whether binding was seen depends on the method and setting. Binding seen in cells or lysates may run through a third protein. Some entries that bind do so weakly or less than the wild type.

This test addresses HA–DCNL1 (human), Q96GG9. Briefly: co-IP; anti-HA immunoprecipitation from lysates of HEK293 cells stably expressing mock, HA-DCNL1, HA-DCNL1 (PONY) or HA-DCNL1-Ub^CT; co-precipitated endogenous proteins by immunoblot. As to conditions: remark: other sources report otherwise. In general terms: Immunoblotting shows a protein as a band on a membrane.

B1: CUL2, Q13617 1-745 (protein)
chain: MSLKPRVVDFDETWNKLLTTIKAVVMLEYVERATWNDRFSDIYALCVAYPEPLGERLYTETKIFLENHVRHLHKRVLESEEQVLVMYHRYWEEYSKGADYMDCLYRYLNTQFIKKNKLTEADLQYGYGGVDMNEPLMEIGELALDMWRKLMVEPLQAILIRMLLREIKNDRGGEDPNQKVIHGVINSFVHVEQYKKKFPLKFYQEIFESPFLTETGEYYKQEASNLLQESNCSQYMEKVLGRLKDEEIRCRKYLHPSSYTKVIHECQQRMVADHLQFLHAECHNIIRQEKKNDMANMYVLLRAVSTGLPHMIQELQNHIHDEGLRATSNLTQENMPTLFVESVLEVHGKFVQLINTVLNGDQHFMSALDKALTSVVNYREPKSVCKAPELLAKYCDNLLKKSAKGMTENEVEDRLTSFITVFKYIDDKDVFQKFYARMLAKRLIHGLSMSMDSEEAMINKLKQACGYEFTSKLHRMYTDMSVSADLNNKFNNFIKNQDTVIDLGISFQIYVLQAGAWPLTQAPSSTFAIPQELEKSVQMFELFYSQHFSGRKLTWLHYLCTGEVKMNYLGKPYVAMVTTYQMAVLLAFNNSETVSYKELQDSTQMNEKELTKTIKSLLDVKMINHDSEKEDIDAESSFSLNMNFSSKRTKFKITTSMQKDTPQEMEQTRSAVDEDRKMYLQAAIVRIMKARKVLRHNALIQEVISQSRARFNPSISMIKKCIEVLIDKQYIERSQASADEYSYVA
Take B1: the binding result is “binds”.
